Source: the ROBIN nucleic acid binder screens (doi:10.1002/anie.202211358).

Oligonucleotides screened, 5′ to 3′:
TPP: TPP riboswitch RNA three-way junction, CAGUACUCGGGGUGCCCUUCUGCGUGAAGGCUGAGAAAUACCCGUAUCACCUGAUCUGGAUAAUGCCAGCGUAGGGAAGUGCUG. Hit rate about 0.7% of about 24,000 compounds.
SAM-II: SAM-II riboswitch RNA pseudoknot, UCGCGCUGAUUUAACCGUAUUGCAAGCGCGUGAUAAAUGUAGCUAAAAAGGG. Hit rate about 1% of about 21,000 compounds.
PreQ1: PreQ1 riboswitch RNA pseudoknot, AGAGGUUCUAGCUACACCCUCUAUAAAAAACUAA. From B. subtilis. Hit rate about 0.7% of about 24,000 compounds.

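Each compound is printed as two spots on a slide made to bind it covalently, so it has no test concentration; the read-out is fluorescence of the bound, labelled oligonucleotide. The data file lists only calls. An earlier report of the laboratory on the PreQ1, TPP and SAM-II riboswitches (doi:10.1038/s41467-019-09493-3) used 1 µM RNA for 2 h and required a mean Z-score above 3 (spot signal-to-noise against the whole library), a score well above that on a control array, and duplicate spots agreeing (coefficient of variation under 100); it then also set aside compounds that hit other targets, which this list keeps. The cut-offs behind this list may differ. The calls come from the array alone, and fixing a compound to the slide can hide its binding.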
Key: 1 = hit, 0 = tested without a hit.
The compounds are a random part of those screened.
A target missing from an entry has no call listed here.

{"compound": "CN(CCCNc1c(-c2ccc(Cl)cc2)c(=O)c1=O)Cc1ccccc1", "TPP": "0", "PreQ1": "0"}
{"compound": "CCCOc1cc(Cl)c(CN2CCNC(C(=O)NC3CC3)C2)cc1OC", "stereo": "stereo not drawn", "TPP": "0", "SAM-II": "0", "PreQ1": "0"}
{"compound": "CC(C)CNc1oc(-c2ccccc2)nc1S(=O)(=O)c1ccccc1", "TPP": "1", "PreQ1": "0"}
{"compound": "Cc1cc(Nc2cc(C(=O)O)ccc2C)nc(C)n1", "TPP": "0", "PreQ1": "0"}
{"compound": "CCCCNc1nnnc2c1sc1nc(N3CCOCC3)c3c(c12)CCCC3", "TPP": "0", "SAM-II": "0", "PreQ1": "0"}
{"compound": "CCCN1C(=O)C2(c3ccccc31)c1c(oc3ccccc3c1=O)C(=O)N2CCCO", "stereo": "stereo not drawn", "TPP": "0", "PreQ1": "0"}
{"compound": "COc1cc(O)c(C(=O)/C=C/c2ccccc2)c(OC)c1", "TPP": "0", "SAM-II": "0", "PreQ1": "0"}
{"compound": "CCOc1ccccc1-n1nc(C)c(-c2ccccc2)c1N", "TPP": "0", "SAM-II": "0", "PreQ1": "0"}
{"compound": "Cc1ccc(NC(=O)CNCC(C)c2ccccc2)c(C)c1", "stereo": "stereo not drawn", "TPP": "0", "SAM-II": "0", "PreQ1": "0"}
{"compound": "COCc1cc(C)nc2sc(C(=O)Nc3ccc(F)cc3F)c(N)c12", "TPP": "0", "SAM-II": "0", "PreQ1": "0"}
{"compound": "CCc1nnc2c3ccccc3nc(Nc3cccc(Cl)c3)n12", "TPP": "0", "SAM-II": "0", "PreQ1": "0"}
{"compound": "Cn1c(CN)nc2ccccc21", "TPP": "0", "PreQ1": "0"}
{"compound": "CCc1cnc(N)nc1NCc1ccccc1CN(C)C", "TPP": "0", "SAM-II": "0", "PreQ1": "0"}
{"compound": "Cc1ccc(CNc2ccc3c(c2)nc(C)n3C)cc1", "TPP": "0", "SAM-II": "0", "PreQ1": "0"}
{"compound": "O=C(C1CCCCC1)N1CC(=O)N2CCc3ccccc3C2C1", "stereo": "stereo not drawn", "TPP": "0", "SAM-II": "0", "PreQ1": "0"}
{"compound": "CCCc1n(CC(O)COc2ccccc2)c2ccccc2[n+]1CC", "stereo": "stereo not drawn", "TPP": "0", "SAM-II": "0", "PreQ1": "0"}
{"compound": "NC(=O)NC(=O)c1nccnc1C(=O)O", "TPP": "0", "SAM-II": "0", "PreQ1": "0"}
{"compound": "COC(=O)c1cc(-c2c(-c3ccccc3)ncn2CCCO)ccc1O", "TPP": "0", "SAM-II": "0", "PreQ1": "0"}
{"compound": "Cc1noc(-c2ccc(N3CC[C@@H](c4ccc5c(c4)OCO5)[C@H](O)C3)nc2)n1", "TPP": "0", "SAM-II": "0", "PreQ1": "0"}
{"compound": "COc1cc(OC)c(Nc2ncnc3c2nc2n3CCCC2)cc1Cl", "TPP": "0", "PreQ1": "0"}

Some entries from above, unchanged:

{"compound": "Cc1ccc(NC(=O)CNCC(C)c2ccccc2)c(C)c1", "stereo": "stereo not drawn", "TPP": "0", "SAM-II": "0", "PreQ1": "0"}
{"compound": "CCCN1C(=O)C2(c3ccccc31)c1c(oc3ccccc3c1=O)C(=O)N2CCCO", "stereo": "stereo not drawn", "TPP": "0", "PreQ1": "0"}